PubChem BioAssay AID743454, Peter MacCallum Cancer Centre | 2014
Test: 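Genes whose loss kills vorinostat-resistant colon cancer cells under vorinostat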 (primary screen). Cells: human HCT116-VR colon cancer cells, selected for vorinostat resistance. Reagents: siRNA pool against human genes, 40 nM siRNA pool. Timing: vorinostat for 24 h, read-out about 72 h after transfection. Conditions: vorinostat at 2.5 µM final. Read-out: 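Two measures, CellTiter-Fluor viability and luminescent caspase 3/7 activity, each as fold change against same-plate mock wells, mean of duplicates, then screen-wide robust z-score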. Direction: viability robust z-score: higher = more viable cells than screen typical; caspase robust z-score: higher = more caspase 3/7 activity than screen typical. Rule for the call: 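Hits are knock-downs in viability class RV1/RV2 or caspase class CA1/CA2, excluding ones that killed cells in the no-drug cell-count arm; hits then retested with single siRNAs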.
The whole screen tested about 18,000 reagents; shown is a random part of them. 450 of them (2.5%) count as active. 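Single biological run; no consistent viability z cut-off exists, so the class columns, not z-scores, define the calls.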 Unmarked entries are inactive.

With knock-down of TNRC6A (trinucleotide repeat containing adaptor 6A), the record shows viability hit class no change; caspase hit class no change; viability robust z-score 0.48; caspase robust z-score -0.03.
Knock-down of B3GNT9 resulted in: viability hit class no change; caspase hit class no change; viability robust z-score 0.22; caspase robust z-score 1.53.
With knock-down of EXPH5 (exophilin 5) the results were viability hit class no change; caspase hit class no change; viability robust z-score -1.25; caspase robust z-score -1.04.
TEKTL1 (tektin like 1) showed viability hit class no change; caspase hit class no change; viability robust z-score 0.84; caspase robust z-score 1.31.
Against MIPOL1 (mirror-image polydactyly 1), the values are viability hit class no change; caspase hit class no change; viability robust z-score 0.46; caspase robust z-score -0.35.
Depletion of ELAC1 (elaC ribonuclease Z 1) came out at: viability hit class no change; caspase hit class no change; viability robust z-score 0.6; caspase robust z-score -0.24.
With knock-down of LSM14B (LSM family member 14B), the record shows viability hit class no change; caspase hit class no change; viability robust z-score -0.05; caspase robust z-score -0.86.
For JAM3 (junctional adhesion molecule 3) the deposit lists viability hit class no change; caspase hit class no change; viability robust z-score -1.22; caspase robust z-score 1.07.
Against DDN (dendrin), the entry reads viability hit class no change; caspase hit class no change; viability robust z-score 0.24; caspase robust z-score -0.64.
GNG8 (G protein subunit gamma 8) scored viability hit class RV2 (reduced viability) (active); caspase hit class CA2 (caspase activation); viability robust z-score -3.4; caspase robust z-score 5.34.
HMGN3 (high mobility group nucleosomal binding domain 3) showed viability hit class no change; caspase hit class no change; viability robust z-score 0.4; caspase robust z-score -1.07.
Silencing of LCTL (lactase like) gave: viability hit class no change; caspase hit class no change; viability robust z-score 1.88; caspase robust z-score -0.64.
Depletion of TLR5 (toll like receptor 5) resulted in: viability hit class no change; caspase hit class no change; viability robust z-score 0.05; caspase robust z-score -0.6.
Knock-down of GMPS (guanosine monophosphate synthase) gave: viability hit class no change; caspase hit class no change; viability robust z-score -0.97; caspase robust z-score -0.25.
After knock-down of PI4K2A (phosphatidylinositol 4-kinase type 2 alpha) the results were viability hit class no change; caspase hit class no change; viability robust z-score 1; caspase robust z-score -0.92.
Silencing of LINC01559 (long independently transcribed non-coding RNA 1559) gave: viability hit class no change; caspase hit class no change; viability robust z-score -0.01; caspase robust z-score 1.86.

Records above marked active, once more:
GNG8 (G protein subunit gamma 8): viability hit class = RV2 (reduced viability) (active); caspase hit class = CA2 (caspase activation); viability robust z-score = -3.4; caspase robust z-score = 5.34

Further records follow.
FMNL3 (formin like 3) gave viability hit class no change; caspase hit class no change; viability robust z-score 0.83; caspase robust z-score -0.81.
For ZFP36L2 (ZFP36 like 2 zinc finger CCCH-type), the entry reads viability hit class no change; caspase hit class no change; viability robust z-score -0.19; caspase robust z-score 1.6.
Knock-down of FAM43B (family with sequence similarity 43 member B) came out at: viability hit class no change; caspase hit class no change; viability robust z-score 0.1; caspase robust z-score 0.62.
Knock-down of CHRM5 (cholinergic receptor muscarinic 5) gave: viability hit class no change; caspase hit class no change; viability robust z-score -0.54; caspase robust z-score 0.2.
Against ELANE (elastase, neutrophil expressed) the deposit lists viability hit class no change; caspase hit class no change; viability robust z-score 0.76; caspase robust z-score -0.2.
Depletion of OMD (osteomodulin) came out at: viability hit class no change; caspase hit class no change; viability robust z-score -0.76; caspase robust z-score 2.21.
For NOAZFP (nucleolar atypical zinc finger) the deposit lists viability hit class RV2 (reduced viability) (active); caspase hit class no change; viability robust z-score -2.98; caspase robust z-score 2.06.
Against PROX2 (prospero homeobox 2), the values are viability hit class no change; caspase hit class no change; viability robust z-score -0.91; caspase robust z-score -0.29.
After knock-down of CD27 (CD27 molecule), the screen gave viability hit class no change; caspase hit class no change; viability robust z-score 0.04; caspase robust z-score 0.34.
For CDH23 (cadherin related 23), the entry reads viability hit class no change; caspase hit class no change; viability robust z-score -1.27; caspase robust z-score -1.36.
With knock-down of OXTR (oxytocin receptor), the record shows viability hit class no change (active); caspase hit class CA1 (caspase activation); viability robust z-score -1; caspase robust z-score 5.28.
